Results as given in patent US20120108492A1, “LIGAND-SPECIFIC NON-ANTIBODY COMPOUNDS THAT INHIBIT CR2 ACTIVATION AND METHODS OF USE THEREOF” (The Regents of the University of Colorado, priority 2008, published 2012).
Not every detail of the peptide structures is certain; ends, links or a residue may be inferred. Where a SMILES comes first, the peptide text is derived from it. Bridges are numbered along the chain shown (N, C = ends).

Molecular target: T1, CR2-C3d interaction (Homo sapiens, UniProt P20023)
T1 construct: DNA corresponding to residues 1-133 of wild-type CR2 (SCR1-2) was PCR amplified; made in house; host or cells: E. coli (pMAL-P2X)
T1 sequence (P20023 21-153): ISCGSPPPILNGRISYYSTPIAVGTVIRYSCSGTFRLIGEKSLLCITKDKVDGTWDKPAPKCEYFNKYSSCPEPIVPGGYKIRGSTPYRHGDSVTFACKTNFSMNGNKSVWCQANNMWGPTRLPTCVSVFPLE
Assay: Peptide competition ELISA, CR2-C3d (bound C3d, solution phase MBP-CR2)
Assay type: binding
Details: inhibition of CR2-C3d interaction, plate-bound C3d, ⅓×PBS

CC(C)[C@@H]1NC(=O)[C@H](Cc2c[nH]cn2)NC(=O)[C@H](CC(N)=O)NC(=O)[C@H](CCCCN)NC(=O)[C@@H]2CCCN2C(=O)[C@H](CC(=O)O)NC(=O)[C@@H](N)CSSC[C@@H](C(=O)O)NC(=O)[C@H](Cc2c[nH]cn2)NC1=O [C3dcp1] (H-CDPKNHVHC-OH; disulfide 1-9) showed an IC50 of 640 µM.
